Source: the supplement of paper PMC6411743
± gives the standard deviation of the averaged measurements. Only a part is listed here, and it is no random draw. Most values lie at the level of the controls, where differences are scatter.

Protein sequences, listed by entry. Tags and fused reporters are not part of them. Lines headed by an entry give the natural chain unless they say otherwise; changes in a name come on top.
UniProt Q8NBN7: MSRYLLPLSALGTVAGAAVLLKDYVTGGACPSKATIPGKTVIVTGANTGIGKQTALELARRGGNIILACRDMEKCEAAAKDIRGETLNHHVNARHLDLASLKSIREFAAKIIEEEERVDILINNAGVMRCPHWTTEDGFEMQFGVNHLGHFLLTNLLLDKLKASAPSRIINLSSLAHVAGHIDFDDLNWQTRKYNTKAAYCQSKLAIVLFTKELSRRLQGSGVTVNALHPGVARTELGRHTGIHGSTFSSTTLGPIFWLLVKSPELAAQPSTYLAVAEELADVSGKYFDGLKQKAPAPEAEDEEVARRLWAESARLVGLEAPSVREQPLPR
UniProt Q8N163, whole entry: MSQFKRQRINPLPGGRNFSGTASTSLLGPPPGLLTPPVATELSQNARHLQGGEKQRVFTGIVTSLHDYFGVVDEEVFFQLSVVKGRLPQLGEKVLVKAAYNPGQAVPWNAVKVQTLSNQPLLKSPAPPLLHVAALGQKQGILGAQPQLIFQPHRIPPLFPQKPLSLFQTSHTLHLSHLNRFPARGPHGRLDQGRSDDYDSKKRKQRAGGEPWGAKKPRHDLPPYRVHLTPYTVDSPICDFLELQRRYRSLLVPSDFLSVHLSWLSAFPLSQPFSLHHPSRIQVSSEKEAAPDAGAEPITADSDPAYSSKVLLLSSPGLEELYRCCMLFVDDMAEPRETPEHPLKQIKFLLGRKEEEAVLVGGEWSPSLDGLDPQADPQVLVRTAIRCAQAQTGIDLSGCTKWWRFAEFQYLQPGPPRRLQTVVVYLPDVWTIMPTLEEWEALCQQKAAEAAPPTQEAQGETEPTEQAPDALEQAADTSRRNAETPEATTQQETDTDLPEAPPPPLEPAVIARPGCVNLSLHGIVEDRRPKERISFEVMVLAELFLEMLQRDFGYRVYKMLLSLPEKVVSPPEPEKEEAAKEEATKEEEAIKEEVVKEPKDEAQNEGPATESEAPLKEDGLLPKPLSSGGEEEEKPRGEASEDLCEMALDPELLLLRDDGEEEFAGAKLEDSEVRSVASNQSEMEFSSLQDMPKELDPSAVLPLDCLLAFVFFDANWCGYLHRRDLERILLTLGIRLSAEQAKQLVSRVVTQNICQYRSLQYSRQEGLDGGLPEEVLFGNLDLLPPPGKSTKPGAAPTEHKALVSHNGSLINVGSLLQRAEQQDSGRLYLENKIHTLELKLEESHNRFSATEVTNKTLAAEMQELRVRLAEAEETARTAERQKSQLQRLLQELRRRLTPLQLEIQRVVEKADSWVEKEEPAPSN
UniProt Q8NBJ4: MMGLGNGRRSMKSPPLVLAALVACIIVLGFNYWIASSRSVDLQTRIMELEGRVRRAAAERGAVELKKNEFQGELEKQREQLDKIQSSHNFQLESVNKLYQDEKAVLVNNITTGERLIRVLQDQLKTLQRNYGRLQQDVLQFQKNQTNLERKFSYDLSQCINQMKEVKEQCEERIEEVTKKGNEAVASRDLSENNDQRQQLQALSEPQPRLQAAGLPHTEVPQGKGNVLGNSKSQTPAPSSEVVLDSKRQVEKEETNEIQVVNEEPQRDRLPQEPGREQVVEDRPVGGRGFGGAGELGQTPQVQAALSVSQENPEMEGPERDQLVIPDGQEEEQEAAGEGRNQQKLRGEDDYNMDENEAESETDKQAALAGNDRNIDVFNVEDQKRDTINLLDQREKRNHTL
UniProt Q8N488: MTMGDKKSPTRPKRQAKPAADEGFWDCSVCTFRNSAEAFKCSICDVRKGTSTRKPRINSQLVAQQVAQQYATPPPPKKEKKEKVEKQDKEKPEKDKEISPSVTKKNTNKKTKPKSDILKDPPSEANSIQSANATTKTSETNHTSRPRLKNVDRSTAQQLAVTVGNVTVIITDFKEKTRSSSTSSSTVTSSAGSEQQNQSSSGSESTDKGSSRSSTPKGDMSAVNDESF
UniProt Q8N2W9: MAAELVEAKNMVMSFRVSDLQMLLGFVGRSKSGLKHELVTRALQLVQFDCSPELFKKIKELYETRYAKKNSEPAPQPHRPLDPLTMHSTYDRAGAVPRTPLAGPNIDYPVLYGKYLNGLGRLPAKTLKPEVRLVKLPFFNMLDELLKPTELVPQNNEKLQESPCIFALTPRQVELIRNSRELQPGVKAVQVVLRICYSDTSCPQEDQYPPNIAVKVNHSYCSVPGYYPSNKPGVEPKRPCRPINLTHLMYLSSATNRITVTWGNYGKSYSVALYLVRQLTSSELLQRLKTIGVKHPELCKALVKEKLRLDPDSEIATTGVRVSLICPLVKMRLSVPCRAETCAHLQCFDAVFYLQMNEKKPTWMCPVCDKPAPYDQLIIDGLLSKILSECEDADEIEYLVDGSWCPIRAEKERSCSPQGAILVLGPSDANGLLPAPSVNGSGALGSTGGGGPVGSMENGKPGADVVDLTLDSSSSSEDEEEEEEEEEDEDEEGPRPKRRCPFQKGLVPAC
UniProt Q8N5K1: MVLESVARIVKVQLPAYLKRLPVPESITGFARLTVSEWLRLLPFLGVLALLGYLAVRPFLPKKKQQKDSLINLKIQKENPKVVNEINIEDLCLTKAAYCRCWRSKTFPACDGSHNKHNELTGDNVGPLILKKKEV
UniProt Q86XI2: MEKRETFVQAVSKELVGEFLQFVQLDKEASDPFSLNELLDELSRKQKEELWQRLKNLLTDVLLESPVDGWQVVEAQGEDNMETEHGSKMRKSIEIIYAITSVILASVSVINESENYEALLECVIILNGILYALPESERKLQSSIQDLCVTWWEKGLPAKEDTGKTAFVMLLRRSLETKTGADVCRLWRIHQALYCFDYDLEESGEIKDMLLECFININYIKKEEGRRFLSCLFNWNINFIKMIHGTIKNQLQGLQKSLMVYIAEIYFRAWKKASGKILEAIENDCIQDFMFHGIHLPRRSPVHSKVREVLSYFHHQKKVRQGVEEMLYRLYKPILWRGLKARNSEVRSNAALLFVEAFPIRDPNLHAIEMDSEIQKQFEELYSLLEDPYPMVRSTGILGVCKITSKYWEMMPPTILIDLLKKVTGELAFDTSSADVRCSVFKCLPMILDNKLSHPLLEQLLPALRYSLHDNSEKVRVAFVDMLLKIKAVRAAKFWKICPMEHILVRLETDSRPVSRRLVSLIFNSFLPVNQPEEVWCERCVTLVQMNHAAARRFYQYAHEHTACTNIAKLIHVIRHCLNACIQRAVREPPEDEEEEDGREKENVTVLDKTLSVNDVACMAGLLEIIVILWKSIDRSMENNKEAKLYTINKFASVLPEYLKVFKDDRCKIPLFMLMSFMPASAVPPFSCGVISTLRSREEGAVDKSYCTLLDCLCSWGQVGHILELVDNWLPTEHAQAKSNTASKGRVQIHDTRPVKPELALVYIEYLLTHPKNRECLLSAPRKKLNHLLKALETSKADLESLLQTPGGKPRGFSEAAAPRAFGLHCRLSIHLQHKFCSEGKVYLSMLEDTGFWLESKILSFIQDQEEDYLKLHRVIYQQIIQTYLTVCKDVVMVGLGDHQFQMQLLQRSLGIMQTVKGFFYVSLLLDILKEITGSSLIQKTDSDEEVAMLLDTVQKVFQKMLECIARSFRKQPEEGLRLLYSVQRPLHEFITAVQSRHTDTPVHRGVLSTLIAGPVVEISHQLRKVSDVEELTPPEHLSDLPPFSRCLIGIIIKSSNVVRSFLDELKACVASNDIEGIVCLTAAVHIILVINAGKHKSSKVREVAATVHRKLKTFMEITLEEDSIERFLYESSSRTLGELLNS
UniProt Q8NBU5: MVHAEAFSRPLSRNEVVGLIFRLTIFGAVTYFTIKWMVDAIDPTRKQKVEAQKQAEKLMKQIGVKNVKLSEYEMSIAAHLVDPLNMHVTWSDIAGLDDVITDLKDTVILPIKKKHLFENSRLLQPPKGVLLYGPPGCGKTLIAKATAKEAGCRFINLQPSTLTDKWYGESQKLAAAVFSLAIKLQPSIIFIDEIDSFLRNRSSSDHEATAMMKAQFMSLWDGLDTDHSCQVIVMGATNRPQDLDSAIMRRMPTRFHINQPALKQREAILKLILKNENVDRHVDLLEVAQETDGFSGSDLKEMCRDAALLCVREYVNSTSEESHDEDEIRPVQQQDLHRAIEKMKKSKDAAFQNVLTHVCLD
UniProt Q86TU7: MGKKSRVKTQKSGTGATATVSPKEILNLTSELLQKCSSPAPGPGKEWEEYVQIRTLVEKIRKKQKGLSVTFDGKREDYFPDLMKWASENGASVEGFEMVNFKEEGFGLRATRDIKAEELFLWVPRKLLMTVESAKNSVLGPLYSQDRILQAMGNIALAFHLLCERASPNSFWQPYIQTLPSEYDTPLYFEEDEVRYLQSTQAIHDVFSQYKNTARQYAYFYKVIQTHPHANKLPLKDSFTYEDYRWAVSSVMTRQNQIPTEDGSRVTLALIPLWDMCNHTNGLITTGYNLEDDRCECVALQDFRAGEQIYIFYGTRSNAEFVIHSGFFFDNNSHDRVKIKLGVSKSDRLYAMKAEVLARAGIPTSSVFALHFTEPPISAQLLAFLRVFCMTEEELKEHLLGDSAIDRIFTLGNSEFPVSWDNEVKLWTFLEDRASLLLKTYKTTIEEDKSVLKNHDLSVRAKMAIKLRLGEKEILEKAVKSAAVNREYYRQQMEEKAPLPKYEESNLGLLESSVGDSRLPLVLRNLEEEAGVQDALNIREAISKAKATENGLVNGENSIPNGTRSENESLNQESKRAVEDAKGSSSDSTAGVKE
UniProt Q7Z7E8: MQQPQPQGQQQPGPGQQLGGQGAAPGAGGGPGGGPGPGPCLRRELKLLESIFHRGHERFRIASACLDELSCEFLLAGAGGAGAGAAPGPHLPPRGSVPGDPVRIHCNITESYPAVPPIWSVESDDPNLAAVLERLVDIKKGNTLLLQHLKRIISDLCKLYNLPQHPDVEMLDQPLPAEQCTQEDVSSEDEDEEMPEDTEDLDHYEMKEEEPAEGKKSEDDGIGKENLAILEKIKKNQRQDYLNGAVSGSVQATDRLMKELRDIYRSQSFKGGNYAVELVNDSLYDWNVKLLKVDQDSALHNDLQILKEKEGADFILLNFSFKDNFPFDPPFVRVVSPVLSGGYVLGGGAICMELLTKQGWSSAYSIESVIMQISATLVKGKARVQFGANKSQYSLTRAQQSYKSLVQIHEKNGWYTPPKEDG
UniProt Q86WV6: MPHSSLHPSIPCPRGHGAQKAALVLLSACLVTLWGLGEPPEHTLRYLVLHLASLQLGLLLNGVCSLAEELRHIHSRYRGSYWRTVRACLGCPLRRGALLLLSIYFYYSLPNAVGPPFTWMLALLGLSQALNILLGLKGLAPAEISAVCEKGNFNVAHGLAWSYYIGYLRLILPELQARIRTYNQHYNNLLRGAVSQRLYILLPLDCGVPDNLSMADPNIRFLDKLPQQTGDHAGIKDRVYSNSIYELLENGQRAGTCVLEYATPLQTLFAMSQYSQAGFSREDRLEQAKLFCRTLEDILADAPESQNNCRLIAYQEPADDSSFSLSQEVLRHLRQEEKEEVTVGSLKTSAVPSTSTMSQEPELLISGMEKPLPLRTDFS
UniProt Q8N4P3, whole entry: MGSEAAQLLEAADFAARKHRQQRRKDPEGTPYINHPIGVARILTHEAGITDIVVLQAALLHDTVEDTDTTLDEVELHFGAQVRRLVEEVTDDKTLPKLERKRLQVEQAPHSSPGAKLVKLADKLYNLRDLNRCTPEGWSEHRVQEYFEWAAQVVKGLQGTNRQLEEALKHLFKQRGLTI
UniProt Q8IWB1: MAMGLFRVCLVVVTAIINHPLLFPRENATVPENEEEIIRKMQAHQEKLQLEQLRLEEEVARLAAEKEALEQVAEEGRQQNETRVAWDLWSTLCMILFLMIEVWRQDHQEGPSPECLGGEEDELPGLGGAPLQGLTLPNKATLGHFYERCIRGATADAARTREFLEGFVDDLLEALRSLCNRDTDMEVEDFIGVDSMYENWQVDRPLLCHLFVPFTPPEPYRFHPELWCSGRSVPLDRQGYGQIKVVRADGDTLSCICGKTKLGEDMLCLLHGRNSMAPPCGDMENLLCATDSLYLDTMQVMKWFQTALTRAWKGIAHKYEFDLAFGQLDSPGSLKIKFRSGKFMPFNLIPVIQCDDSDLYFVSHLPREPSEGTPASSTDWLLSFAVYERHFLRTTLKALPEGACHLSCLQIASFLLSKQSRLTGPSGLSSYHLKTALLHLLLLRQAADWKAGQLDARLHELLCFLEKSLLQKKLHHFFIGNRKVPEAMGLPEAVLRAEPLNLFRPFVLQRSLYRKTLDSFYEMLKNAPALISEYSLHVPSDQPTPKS
UniProt Q8N0Z6: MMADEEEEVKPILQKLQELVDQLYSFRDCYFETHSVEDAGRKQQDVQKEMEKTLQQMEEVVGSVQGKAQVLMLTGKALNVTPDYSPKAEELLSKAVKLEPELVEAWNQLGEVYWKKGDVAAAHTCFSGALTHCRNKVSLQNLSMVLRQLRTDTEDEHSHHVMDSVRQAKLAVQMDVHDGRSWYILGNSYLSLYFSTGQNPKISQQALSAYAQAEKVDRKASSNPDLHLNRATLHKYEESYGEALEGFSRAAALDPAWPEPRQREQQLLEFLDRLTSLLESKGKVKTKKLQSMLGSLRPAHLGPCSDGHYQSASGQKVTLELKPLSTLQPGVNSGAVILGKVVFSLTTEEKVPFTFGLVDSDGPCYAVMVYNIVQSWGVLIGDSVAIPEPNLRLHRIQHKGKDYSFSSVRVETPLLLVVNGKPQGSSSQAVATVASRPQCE

Compound: Nc1ncnc2c1ncn2[C@@H]1O[C@H](COP(=O)(O)OP(=O)(O)NP(=O)(O)O)[C@@H](O)[C@H]1O [adenylyl imidodiphosphate]
Test: NP40-soluble protein abundance relative to vehicle (solubility fold change) (ratio); higher = more soluble protein in presence of AMP-PNP
Method in brief: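 Eight concentrations, 0.1 to 10 mM, were tested on Jurkat crude lysate for 10 min at room temperature and then 3 min at 37 °C, in three independent experiments. The lysate was solubilised with 0.8% NP40 and benzonase, ultracentrifuged, and the supernatant TMT-labelled for LC-MS/MS. Each value is the fold change against the detergent-processed vehicle in its own replicate, from vsn-normalised intensities.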

Target	NP40-soluble protein abundance (concentration: 0.1mM)	NP40-soluble protein abundance (concentration: 0.5mM)
TRAPPC5 (UniProt Q8IUR0)	0.982 ± 0.064	1.034 ± 0.0059
VPS52 (UniProt Q8N1B4)	0.9829 ± 0.0024	0.964 ± 0.053
PDSS2 (UniProt Q86YH6)	1 ± 0.021	0.992 ± 0.013
ZC3H7A (UniProt Q8IWR0)	0.995 ± 0.015	0.999 ± 0.043
UniProt Q8IU60 and related entries	0.981 ± 0.04	0.99 ± 0.035
ERI1 (UniProt Q8IV48)	0.977 ± 0.045	0.97 ± 0.092
UniProt Q8N4N3 and related entries	1.01 ± 0.043	0.968 ± 0.019
TMED4 (UniProt Q7Z7H5)	1 ± 0.04	1.03 ± 0.013
UniProt Q86X53 and related entries	0.984 ± 0.015	0.9885 ± 0.0084
NKAP (UniProt Q8N5F7)	0.991 ± 0.012	1.03 ± 0.064
C1orf52 (UniProt Q8N6N3)	0.978 ± 0.038	0.948 ± 0.024
RDH13 (UniProt Q8NBN7)	0.979 ± 0.011	1 ± 0.029
PELP1 (UniProt Q8IZL8)	0.999 ± 0.024	0.989 ± 0.029
UniProt Q8N6T7 and related entries	0.977 ± 0.023	0.908 ± 0.019
UniProt Q86Y56	1.04 ± 0.011	1.02 ± 0.031
LRRC8A (UniProt Q8IWT6)	0.992 ± 0.011	0.989 ± 0.029
UniProt Q8N163	1.03 ± 0.066	0.971 ± 0.05
UBR7 (UniProt Q8N806)	0.9777 ± 0.006	0.999 ± 0.013
UniProt Q86X83 and related entries	1.03 ± 0.017	0.991 ± 0.071
HOMER1 (UniProt Q86YM7)	0.99 ± 0.021	0.986 ± 0.011
UniProt Q8NB15-2|Q8NB15	0.9923 ± 0.0067	1.02 ± 0.027
UniProt Q8NBJ4 and related entries	1 ± 0.02	1.06 ± 0.072
Q8IWY7 (UniProt Q6IQ55)	0.981 ± 0.085	0.955 ± 0.028
UniProt Q8N6G5 and related entries	0.952 ± 0.084	0.955 ± 0.022

Target	NP40-soluble protein abundance (concentration: 0.1mM)	NP40-soluble protein abundance (concentration: 0.5mM)
UniProt Q8N7H5 and related entries	0.987 ± 0.016	1.01 ± 0.037
TMEM102 (UniProt Q8N9M5)	1 ± 0.057	1.03 ± 0.069
ZBTB2 (UniProt Q8N680)	1 ± 0.038	1.01 ± 0.031
UniProt Q86UY6	1.01 ± 0.039	1.01 ± 0.053
UniProt Q86YS7	0.978 ± 0.042	0.9707 ± 0.0077
UniProt Q8NBK3 and related entries	0.983 ± 0.021	0.997 ± 0.013
AACS (UniProt Q86V21)	0.979 ± 0.026	0.945 ± 0.05
UniProt Q8IYB5-2|Q8IYB5-3	0.998 ± 0.02	0.996 ± 0.038
DDX51 (UniProt Q8N8A6)	1.02 ± 0.038	1.01 ± 0.033
RYBP (UniProt Q8N488)	0.974 ± 0.023	1.02 ± 0.036
PARG (UniProt Q86W56)	1.004 ± 0.0026	1.03 ± 0.019
UniProt Q86W50	0.968 ± 0.023	0.962 ± 0.036
UniProt Q7Z6V5 and related entries	0.966 ± 0.055	1.02 ± 0.039
UniProt Q7Z7K6 and related entries	1.04 ± 0.026	1.05 ± 0.013
ANKMY2 (UniProt Q8IV38)	0.9686 ± 0.0057	1 ± 0.034
NDUFAF2 (UniProt Q8N183)	1.01 ± 0.099	1.05 ± 0.1
UniProt Q8N6R0 and related entries	1.01 ± 0.05	0.97 ± 0.077
UniProt Q86VR2	1.01 ± 0.014	0.9938 ± 0.0078
UniProt Q8IZE3-2|X6RHX1	1.02 ± 0.033	1 ± 0.046
PIAS4 (UniProt Q8N2W9)	1 ± 0.039	1.02 ± 0.053
CISD2 (UniProt Q8N5K1)	1.032 ± 0.0039	0.991 ± 0.027
UniProt Q8N122 and related entries	0.974 ± 0.019	0.988 ± 0.021
TXNDC5 (UniProt Q8NBS9)	0.966 ± 0.033	0.995 ± 0.048
GALNT12 (UniProt Q8IXK2)	1 ± 0.055	0.972 ± 0.037

Target	NP40-soluble protein abundance (concentration: 0.1mM)	NP40-soluble protein abundance (concentration: 0.5mM)
UniProt Q86TM6 and related entries	0.996 ± 0.043	0.971 ± 0.027
AGGF1 (UniProt Q8N302)	1 ± 0.032	1.005 ± 0.0028
UniProt Q8IX90	1.016 ± 0.005	1.03 ± 0.038
UniProt Q8N983-4|B1AL05 and related entries	1.05 ± 0.016	1.02 ± 0.029
TSPYL5 (UniProt Q86VY4)	0.986 ± 0.019	1.03 ± 0.037
UniProt Q86UX7 and related entries	1.04 ± 0.037	0.998 ± 0.11
HSCB (UniProt Q8IWL3)	1.01 ± 0.042	1.01 ± 0.018
HPS6 (UniProt Q86YV9)	1 ± 0.02	1 ± 0.017
UniProt Q86YC3	0.964 ± 0.023	0.983 ± 0.012
UniProt Q86XI2 and related entries	1 ± 0.025	0.981 ± 0.052
UniProt Q8NBU5	1.01 ± 0.026	1.04 ± 0.012
UniProt Q8IUI8 and related entries	1.011 ± 0.0072	1.01 ± 0.012
UniProt Q8IUD2 and related entries	0.952 ± 0.03	0.969 ± 0.03
SETD3 (UniProt Q86TU7)	0.9902 ± 0.0049	0.983 ± 0.049
MTDH (UniProt Q86UE4)	0.99 ± 0.034	1.06 ± 0.052
SLFN11 (UniProt Q7Z7L1)	1.08 ± 0.02	1.078 ± 0.0031
USP38 (UniProt Q8NB14)	1.03 ± 0.031	1.02 ± 0.038
UniProt Q8IZ83 and related entries	1.02 ± 0.031	0.987 ± 0.037
UniProt Q8IWF6	1.04 ± 0.027	1.02 ± 0.032
UniProt Q7Z6E9 and related entries	0.997 ± 0.028	1.05 ± 0.056
UniProt Q8N2Z9	0.949 ± 0.019	0.958 ± 0.037
ARFGAP1 (UniProt Q8N6T3)	0.997 ± 0.031	1 ± 0.042
UniProt Q8N9V3 and related entries	0.967 ± 0.011	0.967 ± 0.049
UniProt Q8IVS2	1.01 ± 0.018	1.02 ± 0.063

A second format for some results above:
Target,NP40-soluble protein abundance (concentration: 0.1mM),NP40-soluble protein abundance (concentration: 0.5mM)
NDUFAF2 (UniProt Q8N183),1.01 ± 0.099,1.05 ± 0.1
UniProt Q8N6R0 and related entries,1.01 ± 0.05,0.97 ± 0.077
UniProt Q86VR2,1.01 ± 0.014,0.9938 ± 0.0078
UniProt Q8IZE3-2|X6RHX1,1.02 ± 0.033,1 ± 0.046
PIAS4 (UniProt Q8N2W9),1 ± 0.039,1.02 ± 0.053
CISD2 (UniProt Q8N5K1),1.032 ± 0.0039,0.991 ± 0.027
UniProt Q8N122 and related entries,0.974 ± 0.019,0.988 ± 0.021
TXNDC5 (UniProt Q8NBS9),0.966 ± 0.033,0.995 ± 0.048
GALNT12 (UniProt Q8IXK2),1 ± 0.055,0.972 ± 0.037
UniProt Q86TM6 and related entries,0.996 ± 0.043,0.971 ± 0.027
AGGF1 (UniProt Q8N302),1 ± 0.032,1.005 ± 0.0028
UniProt Q8IX90,1.016 ± 0.005,1.03 ± 0.038
UniProt Q8N983-4|B1AL05 and related entries,1.05 ± 0.016,1.02 ± 0.029
TSPYL5 (UniProt Q86VY4),0.986 ± 0.019,1.03 ± 0.037
UniProt Q86UX7 and related entries,1.04 ± 0.037,0.998 ± 0.11
HSCB (UniProt Q8IWL3),1.01 ± 0.042,1.01 ± 0.018
HPS6 (UniProt Q86YV9),1 ± 0.02,1 ± 0.017
UniProt Q86YC3,0.964 ± 0.023,0.983 ± 0.012
UniProt Q86XI2 and related entries,1 ± 0.025,0.981 ± 0.052
UniProt Q8NBU5,1.01 ± 0.026,1.04 ± 0.012
UniProt Q8IUI8 and related entries,1.011 ± 0.0072,1.01 ± 0.012
UniProt Q8IUD2 and related entries,0.952 ± 0.03,0.969 ± 0.03
SETD3 (UniProt Q86TU7),0.9902 ± 0.0049,0.983 ± 0.049
MTDH (UniProt Q86UE4),0.99 ± 0.034,1.06 ± 0.052
SLFN11 (UniProt Q7Z7L1),1.08 ± 0.02,1.078 ± 0.0031
USP38 (UniProt Q8NB14),1.03 ± 0.031,1.02 ± 0.038
UniProt Q8IZ83 and related entries,1.02 ± 0.031,0.987 ± 0.037
UniProt Q8IWF6,1.04 ± 0.027,1.02 ± 0.032
UniProt Q7Z6E9 and related entries,0.997 ± 0.028,1.05 ± 0.056
UniProt Q8N2Z9,0.949 ± 0.019,0.958 ± 0.037

More entries

Target	NP40-soluble protein abundance (concentration: 0.1mM)	NP40-soluble protein abundance (concentration: 0.5mM)
LYSMD2 (UniProt Q8IV50)	1.04 ± 0.063	0.957 ± 0.053
ZNF687 (UniProt Q8N1G0)	1 ± 0.034	0.999 ± 0.029
UniProt Q8N2F6 and related entries	0.977 ± 0.06	1.02 ± 0.055
RHOT2 (UniProt Q8IXI1)	1.009 ± 0.0039	1 ± 0.017
UniProt Q86UY8 and related entries	1 ± 0.028	1.01 ± 0.029
PTAR1 (UniProt Q7Z6K3)	0.995 ± 0.014	0.995 ± 0.024
DHX37 (UniProt Q8IY37)	1.05 ± 0.039	1.03 ± 0.041
CACUL1 (UniProt Q86Y37)	1.01 ± 0.059	1.01 ± 0.048
KRI1 (UniProt Q8N9T8)	0.992 ± 0.015	1.03 ± 0.034
UniProt Q8N3X1 and related entries	0.983 ± 0.028	1.04 ± 0.045
PLD3 (UniProt Q8IV08)	0.962 ± 0.025	0.969 ± 0.034
GLCCI1 (UniProt Q86VQ1)	0.999 ± 0.025	1.025 ± 0.0022
UniProt Q8N8A2 and related entries	1.01 ± 0.015	0.981 ± 0.041
UBE2Q1 (UniProt Q7Z7E8)	1.03 ± 0.025	1.02 ± 0.022
UniProt Q8N6M0 and related entries	1.01 ± 0.024	1.05 ± 0.045
UniProt Q86UT6 and related entries	1.02 ± 0.025	1.06 ± 0.042
UniProt Q86U70 and related entries	0.989 ± 0.019	0.967 ± 0.031
DTWD2 (UniProt Q8NBA8)	1.03 ± 0.034	1.03 ± 0.034
SMYD4 (UniProt Q8IYR2)	0.98 ± 0.026	0.98 ± 0.027
TMEM173 (UniProt Q86WV6)	1.01 ± 0.029	0.9951 ± 0.0055
UniProt Q8IWI9 and related entries	0.997 ± 0.021	0.991 ± 0.032
UniProt Q8N5M1 and related entries	1.02 ± 0.056	0.963 ± 0.078
UniProt Q8N4P3 and related entries	0.998 ± 0.025	0.992 ± 0.055
UniProt Q8N490 and related entries	0.975 ± 0.013	0.987 ± 0.022

Target	NP40-soluble protein abundance (concentration: 0.1mM)	NP40-soluble protein abundance (concentration: 0.5mM)
RBM12B (UniProt Q8IXT5)	1.005 ± 0.0017	0.994 ± 0.033
UniProt Q8IX18 and related entries	1.02 ± 0.037	0.951 ± 0.07
UniProt Q8IZM8	1 ± 0.029	0.998 ± 0.037
UniProt Q8N5U6 and related entries	0.971 ± 0.012	0.996 ± 0.041
ITPRIP (UniProt Q8IWB1)	0.991 ± 0.025	0.994 ± 0.028
UniProt Q8IXW5 and related entries	1 ± 0.024	1.02 ± 0.044
UniProt Q8N5C7 and related entries	1.03 ± 0.013	1.02 ± 0.052
UniProt Q8IYB1	0.998 ± 0.036	1.01 ± 0.027
COMMD1 (UniProt Q8N668)	0.952 ± 0.043	0.9754 ± 0.0056
UniProt Q86W42 and related entries	1.15 ± 0.078	1.18 ± 0.029
UniProt Q86XP3 and related entries	1.02 ± 0.012	0.999 ± 0.017
UniProt Q8IWD4 and related entries	0.985 ± 0.017	0.994 ± 0.042
UniProt Q8NB78	1 ± 0.041	0.962 ± 0.021
LRRC47 (UniProt Q8N1G4)	0.99 ± 0.016	0.985 ± 0.04
UniProt Q7Z7L7	1.0216 ± 6.4e-05	1.05 ± 0.016
ARHGAP30 (UniProt Q7Z6I6)	0.99 ± 0.012	0.997 ± 0.031
CKAP2L (UniProt Q8IYA6)	1.01 ± 0.022	0.989 ± 0.022
PRPF39 (UniProt Q86UA1)	0.988 ± 0.022	0.983 ± 0.046
UniProt Q86WA6 and related entries	0.999 ± 0.015	0.9823 ± 0.0058
UniProt Q8N108 and related entries	0.966 ± 0.026	0.992 ± 0.022
TTC5 (UniProt Q8N0Z6)	1.01 ± 0.026	1 ± 0.054
UniProt Q8N1G2	1.01 ± 0.052	0.978 ± 0.044
UniProt Q8NB37	1 ± 0.019	0.997 ± 0.013
UniProt Q8IX12 and related entries	0.985 ± 0.02	0.965 ± 0.018
